Laboratory results as given in article PMC8541566.
These are yes or no findings as the source states them, for the method shown. Binding seen in cells or lysates may run through a third protein. A yes stands for co-enrichment or nearness to the bait. Other partners may have been found. For some assays here: No binding means not detected with the bait. Tags and fused reporters may be left off the sequences shown.

Experiments:
[1] = target: T1, Pkc1-GFP (from plasmid p2062, pVDG7 PKC1-GFP) (S. cerevisiae) (UniProt P24583); assay: affinity purification with mass spectrometry; Pkc1-GFP isolated with GFP-trap agarose from extracts of DL100 cells treated with 250 mM HU for 4 h; whole lane digested, LC-MS/MS
T1 sequence: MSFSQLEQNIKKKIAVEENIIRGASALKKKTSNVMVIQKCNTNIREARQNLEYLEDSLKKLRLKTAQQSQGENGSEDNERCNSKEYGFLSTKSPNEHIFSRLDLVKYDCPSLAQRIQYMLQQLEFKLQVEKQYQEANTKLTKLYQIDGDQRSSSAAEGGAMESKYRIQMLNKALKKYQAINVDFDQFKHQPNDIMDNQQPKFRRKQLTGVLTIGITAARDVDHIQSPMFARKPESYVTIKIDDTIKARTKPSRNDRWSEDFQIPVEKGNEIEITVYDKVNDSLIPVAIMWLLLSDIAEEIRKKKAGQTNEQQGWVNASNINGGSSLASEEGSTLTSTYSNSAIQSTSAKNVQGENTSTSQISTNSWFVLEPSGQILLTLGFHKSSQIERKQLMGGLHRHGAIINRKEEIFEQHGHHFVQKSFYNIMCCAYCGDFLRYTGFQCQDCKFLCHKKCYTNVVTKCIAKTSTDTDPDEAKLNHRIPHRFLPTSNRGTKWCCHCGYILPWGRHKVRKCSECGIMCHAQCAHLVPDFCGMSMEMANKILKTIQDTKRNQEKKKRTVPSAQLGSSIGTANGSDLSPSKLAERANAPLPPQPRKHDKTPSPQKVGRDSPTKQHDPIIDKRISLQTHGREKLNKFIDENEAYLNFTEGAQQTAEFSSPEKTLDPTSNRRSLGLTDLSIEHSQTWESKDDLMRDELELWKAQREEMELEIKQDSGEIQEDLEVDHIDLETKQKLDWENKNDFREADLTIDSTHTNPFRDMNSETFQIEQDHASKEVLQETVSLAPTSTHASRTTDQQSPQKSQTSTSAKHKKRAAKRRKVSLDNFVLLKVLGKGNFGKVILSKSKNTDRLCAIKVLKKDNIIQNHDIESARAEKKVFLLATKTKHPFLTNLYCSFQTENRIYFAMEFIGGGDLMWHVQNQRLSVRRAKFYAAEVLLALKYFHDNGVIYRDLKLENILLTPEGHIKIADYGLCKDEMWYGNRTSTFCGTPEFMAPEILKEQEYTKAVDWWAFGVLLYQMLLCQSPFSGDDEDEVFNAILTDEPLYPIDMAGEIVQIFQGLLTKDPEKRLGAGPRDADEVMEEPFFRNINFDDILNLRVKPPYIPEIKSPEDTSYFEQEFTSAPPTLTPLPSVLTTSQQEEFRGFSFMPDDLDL

[2] = target: T1, Pkc1-GFP (from plasmid p2062, pVDG7 PKC1-GFP) (S. cerevisiae); assay: affinity purification with mass spectrometry; Pkc1-GFP isolated with GFP-trap agarose from extracts of untreated DL100 cells (no HU); whole lane digested, LC-MS/MS

B1: Hrr25 (HO and radiation repair; casein kinase 1 ortholog), endogenous (enzyme, UniProt P29295 1-494)
chain: MDLRVGRKFRIGRKIGSGSFGDIYHGTNLISGEEVAIKLESIRSRHPQLDYESRVYRYLSGGVGIPFIRWFGREGEYNAMVIDLLGPSLEDLFNYCHRRFSFKTVIMLALQMFCRIQYIHGRSFIHRDIKPDNFLMGVGRRGSTVHVIDFGLSKKYRDFNTHRHIPYRENKSLTGTARYASVNTHLGIEQSRRDDLESLGYVLIYFCKGSLPWQGLKATTKKQKYDRIMEKKLNVSVETLCSGLPLEFQEYMAYCKNLKFDEKPDYLFLARLFKDLSIKLEYHNDHLFDWTMLRYTKAMVEKQRDLLIEKGDLNANSNAASASNSTDNKSETFNKIKLLAMKKFPTHFHYYKNEDKHNPSPEEIKQQTILNNNAASSLPEELLNALDKGMENLRQQQPQQQVQSSQPQPQPQQLQQQPNGQRPNYYPEPLLQQQQRDSQEQQQQVPMATTRATQYPPQINSNNFNTNQASVPPQMRSNPQQPPQDKPAGQSIWL
With B1 the binding [1] was “binds” and the binding [2] was “no binding (only cells not treated with HU)”.
